# Reference: doi:10.1101/2021.06.11.448082
# Protein sequences, listed by entry. Tags and fused reporters are not part of them.
# UniProt P35637: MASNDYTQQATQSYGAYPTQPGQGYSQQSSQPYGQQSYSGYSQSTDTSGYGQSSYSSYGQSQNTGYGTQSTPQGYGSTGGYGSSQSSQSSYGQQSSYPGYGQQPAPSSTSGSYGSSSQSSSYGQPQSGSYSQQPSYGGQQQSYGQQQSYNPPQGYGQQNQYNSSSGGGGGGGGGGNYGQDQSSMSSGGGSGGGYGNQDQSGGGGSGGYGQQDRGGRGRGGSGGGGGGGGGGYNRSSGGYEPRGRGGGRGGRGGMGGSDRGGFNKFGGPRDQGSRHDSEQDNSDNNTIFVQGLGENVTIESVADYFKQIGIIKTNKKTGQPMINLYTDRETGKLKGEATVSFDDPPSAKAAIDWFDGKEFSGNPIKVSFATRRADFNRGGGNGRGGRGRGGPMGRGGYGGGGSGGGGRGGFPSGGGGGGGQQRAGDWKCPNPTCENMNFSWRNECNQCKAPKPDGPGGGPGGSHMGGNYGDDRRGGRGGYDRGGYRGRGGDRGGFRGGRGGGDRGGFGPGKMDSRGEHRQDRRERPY
# UniProt O75128: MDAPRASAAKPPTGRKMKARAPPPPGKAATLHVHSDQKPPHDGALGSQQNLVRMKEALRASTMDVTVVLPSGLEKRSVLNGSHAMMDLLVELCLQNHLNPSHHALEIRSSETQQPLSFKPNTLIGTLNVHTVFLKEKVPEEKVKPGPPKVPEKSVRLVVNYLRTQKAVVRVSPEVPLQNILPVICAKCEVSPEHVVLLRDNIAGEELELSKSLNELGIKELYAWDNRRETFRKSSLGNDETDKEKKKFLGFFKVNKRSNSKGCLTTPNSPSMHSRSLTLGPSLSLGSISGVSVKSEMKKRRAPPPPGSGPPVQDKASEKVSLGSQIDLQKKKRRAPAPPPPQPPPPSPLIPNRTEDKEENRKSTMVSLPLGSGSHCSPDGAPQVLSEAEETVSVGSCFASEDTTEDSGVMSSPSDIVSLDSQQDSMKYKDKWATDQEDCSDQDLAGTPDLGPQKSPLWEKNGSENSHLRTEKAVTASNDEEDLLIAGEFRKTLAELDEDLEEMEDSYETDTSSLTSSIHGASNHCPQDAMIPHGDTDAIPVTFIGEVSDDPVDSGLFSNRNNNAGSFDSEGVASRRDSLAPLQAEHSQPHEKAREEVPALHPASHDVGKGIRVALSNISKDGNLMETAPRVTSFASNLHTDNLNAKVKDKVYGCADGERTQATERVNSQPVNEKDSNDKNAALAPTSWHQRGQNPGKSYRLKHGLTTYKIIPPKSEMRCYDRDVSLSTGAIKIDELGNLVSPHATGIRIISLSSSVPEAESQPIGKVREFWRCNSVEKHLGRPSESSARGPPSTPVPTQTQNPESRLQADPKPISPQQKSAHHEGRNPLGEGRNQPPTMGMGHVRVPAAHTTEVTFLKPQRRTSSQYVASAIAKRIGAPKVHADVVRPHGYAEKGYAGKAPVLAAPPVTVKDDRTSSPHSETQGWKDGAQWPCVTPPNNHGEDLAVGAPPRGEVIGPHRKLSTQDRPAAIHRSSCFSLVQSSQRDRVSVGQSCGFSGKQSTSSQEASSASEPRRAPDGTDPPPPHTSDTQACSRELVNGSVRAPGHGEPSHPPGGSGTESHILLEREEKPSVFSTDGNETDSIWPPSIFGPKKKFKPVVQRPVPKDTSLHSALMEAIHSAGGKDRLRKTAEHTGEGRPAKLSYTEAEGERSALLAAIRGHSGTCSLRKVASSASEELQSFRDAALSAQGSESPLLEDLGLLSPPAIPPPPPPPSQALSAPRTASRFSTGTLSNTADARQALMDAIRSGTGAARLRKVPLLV
# UniProt Q9UHV7: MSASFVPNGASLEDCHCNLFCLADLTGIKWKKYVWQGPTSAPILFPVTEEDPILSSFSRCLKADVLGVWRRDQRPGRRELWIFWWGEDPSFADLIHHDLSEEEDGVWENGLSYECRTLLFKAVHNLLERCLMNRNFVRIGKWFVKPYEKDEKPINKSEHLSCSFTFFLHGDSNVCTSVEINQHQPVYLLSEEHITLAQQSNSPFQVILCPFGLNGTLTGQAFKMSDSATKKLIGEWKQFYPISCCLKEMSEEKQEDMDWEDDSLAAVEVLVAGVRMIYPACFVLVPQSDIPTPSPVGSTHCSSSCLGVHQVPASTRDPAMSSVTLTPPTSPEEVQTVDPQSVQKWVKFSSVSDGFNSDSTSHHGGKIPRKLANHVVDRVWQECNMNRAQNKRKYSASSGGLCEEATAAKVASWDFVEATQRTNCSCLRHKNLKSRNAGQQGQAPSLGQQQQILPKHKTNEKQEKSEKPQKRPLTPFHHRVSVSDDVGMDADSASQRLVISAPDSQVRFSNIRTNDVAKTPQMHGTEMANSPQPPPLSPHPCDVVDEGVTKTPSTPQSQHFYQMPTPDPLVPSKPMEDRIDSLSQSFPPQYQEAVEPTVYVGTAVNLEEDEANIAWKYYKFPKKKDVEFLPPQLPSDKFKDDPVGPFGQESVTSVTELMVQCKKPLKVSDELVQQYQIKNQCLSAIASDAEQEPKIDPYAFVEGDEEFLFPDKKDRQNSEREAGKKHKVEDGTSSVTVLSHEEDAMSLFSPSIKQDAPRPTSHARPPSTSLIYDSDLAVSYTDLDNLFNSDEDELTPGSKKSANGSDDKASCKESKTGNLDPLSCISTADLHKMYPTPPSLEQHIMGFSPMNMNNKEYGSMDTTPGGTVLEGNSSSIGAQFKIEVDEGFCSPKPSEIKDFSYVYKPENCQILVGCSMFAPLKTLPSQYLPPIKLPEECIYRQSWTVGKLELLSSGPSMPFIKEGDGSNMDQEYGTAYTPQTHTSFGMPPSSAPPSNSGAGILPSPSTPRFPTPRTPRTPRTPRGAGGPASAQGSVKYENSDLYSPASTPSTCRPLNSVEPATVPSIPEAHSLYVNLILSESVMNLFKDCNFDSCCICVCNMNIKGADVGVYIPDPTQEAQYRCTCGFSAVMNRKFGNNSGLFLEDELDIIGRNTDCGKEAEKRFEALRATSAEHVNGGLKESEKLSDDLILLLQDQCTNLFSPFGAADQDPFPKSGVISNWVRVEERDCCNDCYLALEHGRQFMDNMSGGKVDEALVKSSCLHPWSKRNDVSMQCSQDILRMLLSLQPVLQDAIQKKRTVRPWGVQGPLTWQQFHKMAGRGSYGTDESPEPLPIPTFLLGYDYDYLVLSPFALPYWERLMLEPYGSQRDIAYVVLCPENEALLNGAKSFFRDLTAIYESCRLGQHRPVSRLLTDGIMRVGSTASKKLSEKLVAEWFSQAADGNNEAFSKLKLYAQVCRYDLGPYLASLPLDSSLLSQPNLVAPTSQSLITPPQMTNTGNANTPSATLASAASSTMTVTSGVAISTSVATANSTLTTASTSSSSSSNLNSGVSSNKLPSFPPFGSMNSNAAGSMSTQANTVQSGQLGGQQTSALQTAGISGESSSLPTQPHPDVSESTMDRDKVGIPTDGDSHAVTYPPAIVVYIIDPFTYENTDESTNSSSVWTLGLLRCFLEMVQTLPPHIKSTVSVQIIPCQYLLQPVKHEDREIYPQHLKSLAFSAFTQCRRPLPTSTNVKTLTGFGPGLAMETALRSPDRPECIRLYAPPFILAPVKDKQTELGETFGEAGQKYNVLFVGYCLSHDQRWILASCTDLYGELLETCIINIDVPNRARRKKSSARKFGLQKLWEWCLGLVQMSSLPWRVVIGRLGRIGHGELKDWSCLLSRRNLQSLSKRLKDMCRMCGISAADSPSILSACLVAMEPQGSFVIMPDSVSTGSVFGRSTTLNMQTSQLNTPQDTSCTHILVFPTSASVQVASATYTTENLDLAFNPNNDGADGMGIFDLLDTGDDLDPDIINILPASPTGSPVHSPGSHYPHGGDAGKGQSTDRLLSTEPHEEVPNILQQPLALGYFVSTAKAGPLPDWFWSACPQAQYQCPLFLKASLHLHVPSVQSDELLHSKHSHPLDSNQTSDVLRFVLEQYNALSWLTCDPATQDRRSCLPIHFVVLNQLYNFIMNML
# Target: APEX2-FUS WT (Twin-Strep-tagged APEX2 fused to wild-type human FUS) (human) (UniProt P35637)
# Test: proximity labelling
row,Molecule,binding
1,Cordon-Bleu WH2 Repeat Protein (from UniProt O75128 1-1261),binds
2,Mediator of RNA polymerase II transcription subunit 13 (from UniProt Q9UHV7 1-2174),binds
3,"Pleckstrin homology-like domain family B member 2 (protein, UniProt Q86SQ0 1-1253) MEEHSYIQKELDLQNGSLEEDSVVHSVENDSQNMMESLSPKKYSSSLRFKANGDYSGSYLTLSQPVPAKRSPSPLGTSVRSSPSLAKIQGSKQFSYDGTDKNIPMKPPTPLLNTTSSLSGYPLGRADFDHYTGRDSERALRLSEKPPYSKYSSRHKSHDNVYSLGGLEGRKASGSLLAMWNGSSLSDAGPPPISRSGAASMPSSPKQARKMSIQDSLALQPKLTRHKELASENINLRTRKYSSSSLSHMGAYSRSLPRLYRATENQLTPLSLPPRNSLGNSKRTKLGEKDLPHSVIDNDNYLNFSSLSSGALPYKTSASEGNPYVSSTLSVPASPRVARKMLLASTSSCASDDFDQASYVGTNPSHSLLAGESDRVFATRRNFSCGSVEFDEADLESLRQASGTPQPALRERKSSISSISGRDDLMDYHRRQREERLREQEMERLERQRLETILSLCAEYTKPDSRLSTGTTVEDVQKINKELEKLQLSDEESVFEEALMSPDTRYRCHRKDSLPDADLASCGSLSQSSASFFTPRSTRNDELLSDLTRTPPPPSSTFPKASSESSYLSILPKTPEGISEEQRSQELAAMEETRIVILNNLEELKQKIKDINDQMDESFRELDMECALLDGEQKSETTELMKEKEILDHLNRKIAELEKNIVGEKTKEKVKLDAEREKLERLQELYSEQKTQLDNCPESMREQLQQQLKRDADLLDVESKHFEDLEFQQLEHESRLDEEKENLTQQLLREVAEYQRNIVSRKEKISALKKQANHIVQQAQREQDHFVKEKNNLIMMLQREKENLCNLEKKYSSLSGGKGFPVNPNTLKEGYISVNEINEPCGNSTNLSPSTQFPADADAVATEPATAVLASQPQSKEHFRSLEERKKQHKEGLYLSDTLPRKKTTSSISPHFSSATMGRSITPKAHLPLGQSNSCGSVLPPSLAAMAKDSESRRMLRGYNHQQMSEGHRQKSEFYNRTASESNVYLNSFHYPDHSYKDQAFDTLSLDSSDSMETSISACSPDNISSASTSNIARIEEMERLLKQAHAEKTRLLESREREMEAKKRALEEEKRRREILEKRLQEETSQRQKLIEKEVKIRERQRAQARPLTRYLPVRKEDFDLRSHVETAGHNIDTCYHVSITEKTCRGFLIKMGGKIKTWKKRWFVFDRNKRTFSYYADKHETKLKGVIYFQAIEEVYYDHLKNANKSPNPLLTFSVKTHDRIYYMVAPSPEAMRIWMDVIVTGAEGYTHFLL",binds

# No constants are given. Whether binding was seen depends on the method and setting. In cells and extracts the contact can be indirect. These calls come from enrichment with a bait or labelling near it, and not all partners need be listed.
